Data reported in paper PMC9630792.
Results are given in words; binding and its absence hold for the method and conditions named. In cells and extracts the contact can be indirect. Some entries that bind do so weakly or less than the wild type. Where a sequence is shown, tags or fusion partners need not be part of it.

Protein sequences, listed by entry. Tags and fused reporters are not part of them. Lines headed by an entry give the natural chain unless they say otherwise; changes in a name come on top. Chains listed by the source or under a name are the forms on record and can include a tag or linker. Residues count along the entry.
UniProt P06104: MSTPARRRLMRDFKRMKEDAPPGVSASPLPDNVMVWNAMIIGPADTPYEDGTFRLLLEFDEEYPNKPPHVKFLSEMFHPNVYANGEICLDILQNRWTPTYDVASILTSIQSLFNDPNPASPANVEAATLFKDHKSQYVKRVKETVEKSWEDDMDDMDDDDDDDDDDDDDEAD
His6-Rad6 (amino acids 1-150) (S. cerevisiae (budding yeast)): residues 1-150 of P06104
His6-rad6-A126F (amino acids 1-150) (S. cerevisiae (budding yeast)) (P06104, form named): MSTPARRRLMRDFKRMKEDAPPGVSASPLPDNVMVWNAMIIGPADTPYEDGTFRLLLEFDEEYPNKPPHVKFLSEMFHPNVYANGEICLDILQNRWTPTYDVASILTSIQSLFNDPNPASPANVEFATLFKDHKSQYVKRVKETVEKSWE
His6-rad6-A126T (amino acids 1-150) (S. cerevisiae (budding yeast)) (P06104, form named): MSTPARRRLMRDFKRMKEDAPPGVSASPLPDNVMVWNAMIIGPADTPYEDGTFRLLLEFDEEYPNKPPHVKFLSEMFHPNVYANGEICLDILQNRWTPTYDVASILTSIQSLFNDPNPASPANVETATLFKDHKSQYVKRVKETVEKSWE
UniProt Q07963: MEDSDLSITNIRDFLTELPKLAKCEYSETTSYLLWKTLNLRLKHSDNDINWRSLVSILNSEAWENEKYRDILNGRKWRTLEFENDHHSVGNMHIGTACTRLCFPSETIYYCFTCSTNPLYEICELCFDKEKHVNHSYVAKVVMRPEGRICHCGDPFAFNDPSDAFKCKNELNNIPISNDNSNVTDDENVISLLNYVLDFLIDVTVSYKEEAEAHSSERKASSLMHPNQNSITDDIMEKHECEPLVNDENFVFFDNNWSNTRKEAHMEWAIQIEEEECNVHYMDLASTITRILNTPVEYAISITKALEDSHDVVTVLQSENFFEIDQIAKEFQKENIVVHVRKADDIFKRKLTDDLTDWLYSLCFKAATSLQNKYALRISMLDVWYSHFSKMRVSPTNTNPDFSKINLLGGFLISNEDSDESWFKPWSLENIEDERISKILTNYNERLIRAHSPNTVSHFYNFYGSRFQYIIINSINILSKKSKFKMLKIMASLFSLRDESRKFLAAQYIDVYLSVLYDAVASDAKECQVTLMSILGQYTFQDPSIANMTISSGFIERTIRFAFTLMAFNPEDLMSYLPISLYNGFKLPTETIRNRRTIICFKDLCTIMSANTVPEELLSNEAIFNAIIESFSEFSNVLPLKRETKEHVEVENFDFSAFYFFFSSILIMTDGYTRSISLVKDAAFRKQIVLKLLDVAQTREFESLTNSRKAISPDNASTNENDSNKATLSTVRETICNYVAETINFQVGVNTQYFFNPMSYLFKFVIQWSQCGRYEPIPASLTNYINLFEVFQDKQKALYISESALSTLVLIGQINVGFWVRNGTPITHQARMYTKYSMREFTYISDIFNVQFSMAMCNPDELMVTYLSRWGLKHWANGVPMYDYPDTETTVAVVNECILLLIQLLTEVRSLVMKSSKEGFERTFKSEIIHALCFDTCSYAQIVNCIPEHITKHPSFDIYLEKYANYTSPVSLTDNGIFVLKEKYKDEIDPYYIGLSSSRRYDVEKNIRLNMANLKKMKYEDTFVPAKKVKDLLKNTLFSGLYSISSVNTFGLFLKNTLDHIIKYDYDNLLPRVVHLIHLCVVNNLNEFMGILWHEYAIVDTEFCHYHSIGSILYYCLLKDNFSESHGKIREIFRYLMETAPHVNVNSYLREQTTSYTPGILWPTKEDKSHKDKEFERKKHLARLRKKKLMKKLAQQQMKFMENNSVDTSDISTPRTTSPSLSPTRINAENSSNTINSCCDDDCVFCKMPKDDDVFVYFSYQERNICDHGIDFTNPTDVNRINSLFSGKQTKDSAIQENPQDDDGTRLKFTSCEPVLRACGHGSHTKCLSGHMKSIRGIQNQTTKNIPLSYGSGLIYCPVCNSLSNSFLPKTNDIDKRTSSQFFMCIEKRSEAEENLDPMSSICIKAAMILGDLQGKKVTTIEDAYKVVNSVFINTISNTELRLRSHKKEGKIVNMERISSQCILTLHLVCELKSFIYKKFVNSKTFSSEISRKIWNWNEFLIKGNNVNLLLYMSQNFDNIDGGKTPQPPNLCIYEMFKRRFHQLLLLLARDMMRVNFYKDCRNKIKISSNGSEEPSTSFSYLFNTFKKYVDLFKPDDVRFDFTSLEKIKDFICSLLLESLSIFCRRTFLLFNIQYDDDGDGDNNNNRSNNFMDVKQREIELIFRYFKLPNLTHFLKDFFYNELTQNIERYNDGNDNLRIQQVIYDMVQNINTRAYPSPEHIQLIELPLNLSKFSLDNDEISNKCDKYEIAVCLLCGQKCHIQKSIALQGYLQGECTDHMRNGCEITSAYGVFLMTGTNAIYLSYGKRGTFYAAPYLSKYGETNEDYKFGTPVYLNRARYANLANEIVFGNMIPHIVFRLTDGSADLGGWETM

Assays:
[1] = target: Flag epitope-tagged WT Rad6 (S. cerevisiae (budding yeast)) (UniProt P06104); assay: co-IP; yeast lysate (1 mg) with anti-Flag M2 magnetic beads, 4 h at 4 °C in 10 mM Tris.Cl pH 8.0, 100 mM NaCl, 10% glycerol, 0.1% NP-40; immunoblotting
[2] = target: Flag epitope-tagged rad6-A126F (S. cerevisiae (budding yeast)) (UniProt P06104); assay: as above
[3] = target: Flag epitope-tagged rad6-A126T (S. cerevisiae (budding yeast)) (UniProt P06104); assay: as above
[4] = target: His6-Rad6 (amino acids 1-150) (S. cerevisiae (budding yeast)) (UniProt P06104); assay: pull-down; metal affinity copurification: His6-tagged WT or mutant Rad6 coexpressed with Bre1R6BR or Rad18R6BR in E. coli; clarified lysate bound to TALON SuperFlow resin 2 h at 4 °C in 25 mM Tris.Cl pH 7.9, 150 mM NaCl, 20 mM imidazole, 0.1% Triton X-100; SDS-PAGE and Coomassie-type staining
[5] = target: His6-rad6-A126F (amino acids 1-150) (S. cerevisiae (budding yeast)) (UniProt P06104); assay: as above
[6] = target: His6-rad6-A126T (amino acids 1-150) (S. cerevisiae (budding yeast)) (UniProt P06104); assay: as above

Measured: binding

6HA-tagged Ubr2 (from UniProt Q07963 1-1872) (enzyme)
binds: [1] | [2] | [3]

B1: GST-tagged Rad18 Rad6-binding region (R6BR) (amino acids 301-487) (domain or fragment, UniProt P10862 301-487)
chain: RQNMIKRYNHYEMLWNSNFCDSLEPVDEAELKRQLLSWDVSHNKTPQNSSNKGGISKLMIMKSNGKSSSYRKLLENFKNDKFNRKGWMVMFRKDFARLIREAKMKIKTGSSDSSGSVGHSNDGDGVEKVQSDQGTEDQQMEKDQDTVINEDRVAGERNLPNEDSTDADLSRELMDLNEYSKDPPGNN
binds: [4] | [5] | [6]

B2: 9Myc-tagged Rad18 (enzyme, UniProt P10862 1-487)
chain: MDHQITTASDFTTTSIPSLYQLDTLLRCHICKDFLKVPVLTPCGHTFCSLCIRTHLNNQPNCPLCLFEFRESLLRSEFLVSEIIQSYTSLRSSLLDALRIPKPTPVPENEEVPGPENSSWIELISESESDSVNAADDDLQIVATSERKLAKRSMTDILPLSSKPSKRNFAMFRSERIKKKSKPNEQMAQCPICQQFYPLKALEKTHLDECLTLQSLGKKPKISTTFPTESNPHNKSSSRFKVRTPEVDKSSCGETSHVDKYLNSMMSAEHQRLPKINFTSMTQSQIKQKLSSLGLSTNGTRQNMIKRYNHYEMLWNSNFCDSLEPVDEAELKRQLLSWDVSHNKTPQNSSNKGGISKLMIMKSNGKSSSYRKLLENFKNDKFNRKGWMVMFRKDFARLIREAKMKIKTGSSDSSGSVGHSNDGDGVEKVQSDQGTEDQQMEKDQDTVINEDRVAGERNLPNEDSTDADLSRELMDLNEYSKDPPGNN
binds: [1] | [2] | [3]

B3: Bre1 (enzyme, UniProt Q07457 1-700)
chain: MTAEPATKKIKLELSDPSEPLTQSDVIAFQKEALFRCINRRRVDFEALRKQYELSRRECIDVSRKLANIMALIVTLARFIETFCTDANEKQLCREIAQGDETLIVQRSDSFMKLLTKYGKPNTTDSNTNSNASDHIQELTTELKNLRKSKEELFYENSQLTEEISALKEYYTNIIRKYDRDESFTIKRVFKEDKTDAVKELREDEKESNENNIKSGNKDSSAINGDNTSKKSEKGDELVQAEDERKEDAENEKLELDLKFSDLRAEINSLSSTIKDLENIRRENEEELIKTRSEVSNLKKQQIAAADQDPDFKSYDHESLLAKIQHLTEQNAELSEINSSFLSKFQVLAKEKEIYTKKVREEFQKSLDSLVEMNSSLEKDVVRIRTARDDLLSKIAILEAEKSKTEVLSDLQHAIDILKEQWTKIDQRSNDTKSSSTQDALIKEIQDLEKGFRELSDLTHKKYSEIINHESVISKLTVEKTKADQKYFAAMRSKDSILIEIKTLSKSLSKSNELILQLKDSDRLLQQKIGNLHKQLDLSQNNERRLIDSSKTETLKIIDLNNTSTKLKRSLEKLQEESNKSIADMTHLETKLNDTEIELKHFKQKASHLESKCEKLHDTLFRGNNKNKGSSDEALVEELANFRTLVYCSLCSKNWKNMAIKTCGHVFCENCCKERLAARMRKCPTCNKAFSSNDLLTVHL
binds: [1] | [2] | [3]

B4: Bre1 Rad6-binding region (R6BR) (amino acids 1-214) (domain or fragment, UniProt Q07457 1-214)
chain: MTAEPATKKIKLELSDPSEPLTQSDVIAFQKEALFRCINRRRVDFEALRKQYELSRRECIDVSRKLANIMALIVTLARFIETFCTDANEKQLCREIAQGDETLIVQRSDSFMKLLTKYGKPNTTDSNTNSNASDHIQELTTELKNLRKSKEELFYENSQLTEEISALKEYYTNIIRKYDRDESFTIKRVFKEDKTDAVKELREDEKESNENNIK
binds: [4] | [5] | [6]
